Data as given in patent EP0850950A1 (DAIICHI PHARMACEUTICAL CO., LTD., priority 1995, dated 1998).

Assay: peptide synthesis
Conditions: late stage modification step

Boc-Tyr-D-AMSB-Phe-MeβAla-OH
step yield (acetate): 99.5%

H2NC(NH)-Tyr-(R)-PGPA-Phe-MeβAla-OH·diacetate
step yield (diacetate): 26.0%

H2NC(NH)-Tyr-D-(N-Me)Arg-Phe-MeβAla-OH·diacetate
step yield (acetate): 83%

PEPTIDE1{[Amidino].[DMT].[dR].F.[MebAla]}$$$$V2.0
step yield (on protected peptide, diacetate): 83%

HELM strings list residues between dots; [ac] is acetyl, [am] amide, other brackets name non-standard units.
